Test results published in the supplement of paper PMC12819154, “High-throughput peptide-centric local stability assay extends protein–ligand identification to membrane proteins, tissues and bacteria” (Nature Structural & Molecular Biology, 2025).
Some of the results follow. Small differences around the control level are noise.

Protein sequences, listed by entry. Tags and fused reporters are not part of them. Lines headed by an entry give the natural chain unless they say otherwise; changes in a name come on top.
UniProt P05198, whole entry: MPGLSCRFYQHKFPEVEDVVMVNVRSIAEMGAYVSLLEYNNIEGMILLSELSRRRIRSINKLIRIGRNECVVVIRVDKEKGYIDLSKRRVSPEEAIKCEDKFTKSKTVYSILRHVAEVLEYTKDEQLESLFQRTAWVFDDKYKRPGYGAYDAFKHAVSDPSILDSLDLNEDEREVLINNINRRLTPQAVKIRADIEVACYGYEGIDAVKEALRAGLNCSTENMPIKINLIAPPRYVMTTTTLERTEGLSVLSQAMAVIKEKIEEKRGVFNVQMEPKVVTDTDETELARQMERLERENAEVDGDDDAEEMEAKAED
UniProt P12755: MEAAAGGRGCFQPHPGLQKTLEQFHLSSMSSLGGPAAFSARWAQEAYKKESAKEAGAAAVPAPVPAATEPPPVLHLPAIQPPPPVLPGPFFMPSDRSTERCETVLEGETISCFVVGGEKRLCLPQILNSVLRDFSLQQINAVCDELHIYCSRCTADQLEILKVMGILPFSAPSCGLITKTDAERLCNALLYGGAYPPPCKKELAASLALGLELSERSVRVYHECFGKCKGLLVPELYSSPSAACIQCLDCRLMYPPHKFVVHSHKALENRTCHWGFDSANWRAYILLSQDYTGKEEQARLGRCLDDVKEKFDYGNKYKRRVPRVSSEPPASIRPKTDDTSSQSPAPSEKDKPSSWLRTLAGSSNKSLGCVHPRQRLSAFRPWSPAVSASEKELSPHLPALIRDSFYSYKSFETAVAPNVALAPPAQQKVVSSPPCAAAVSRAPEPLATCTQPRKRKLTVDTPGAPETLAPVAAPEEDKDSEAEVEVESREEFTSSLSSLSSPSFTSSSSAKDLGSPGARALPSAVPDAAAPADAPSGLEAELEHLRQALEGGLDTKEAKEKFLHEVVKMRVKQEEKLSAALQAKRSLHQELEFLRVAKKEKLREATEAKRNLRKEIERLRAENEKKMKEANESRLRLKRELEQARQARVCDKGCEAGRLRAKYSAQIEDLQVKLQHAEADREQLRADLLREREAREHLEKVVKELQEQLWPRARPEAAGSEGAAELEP
UniProt P11182, whole entry: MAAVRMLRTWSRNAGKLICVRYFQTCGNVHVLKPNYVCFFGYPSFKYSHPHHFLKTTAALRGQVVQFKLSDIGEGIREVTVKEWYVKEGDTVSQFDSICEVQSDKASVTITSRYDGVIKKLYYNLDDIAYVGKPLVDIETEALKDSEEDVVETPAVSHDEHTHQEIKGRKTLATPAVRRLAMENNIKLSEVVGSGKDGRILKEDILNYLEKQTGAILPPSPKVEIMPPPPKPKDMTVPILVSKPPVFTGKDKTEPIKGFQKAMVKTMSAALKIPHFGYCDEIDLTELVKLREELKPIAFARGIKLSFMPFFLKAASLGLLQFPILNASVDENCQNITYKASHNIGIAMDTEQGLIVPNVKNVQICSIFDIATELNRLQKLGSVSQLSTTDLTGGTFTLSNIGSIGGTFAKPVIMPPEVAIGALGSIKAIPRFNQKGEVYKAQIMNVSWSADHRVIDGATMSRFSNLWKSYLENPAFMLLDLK
UniProt P02545: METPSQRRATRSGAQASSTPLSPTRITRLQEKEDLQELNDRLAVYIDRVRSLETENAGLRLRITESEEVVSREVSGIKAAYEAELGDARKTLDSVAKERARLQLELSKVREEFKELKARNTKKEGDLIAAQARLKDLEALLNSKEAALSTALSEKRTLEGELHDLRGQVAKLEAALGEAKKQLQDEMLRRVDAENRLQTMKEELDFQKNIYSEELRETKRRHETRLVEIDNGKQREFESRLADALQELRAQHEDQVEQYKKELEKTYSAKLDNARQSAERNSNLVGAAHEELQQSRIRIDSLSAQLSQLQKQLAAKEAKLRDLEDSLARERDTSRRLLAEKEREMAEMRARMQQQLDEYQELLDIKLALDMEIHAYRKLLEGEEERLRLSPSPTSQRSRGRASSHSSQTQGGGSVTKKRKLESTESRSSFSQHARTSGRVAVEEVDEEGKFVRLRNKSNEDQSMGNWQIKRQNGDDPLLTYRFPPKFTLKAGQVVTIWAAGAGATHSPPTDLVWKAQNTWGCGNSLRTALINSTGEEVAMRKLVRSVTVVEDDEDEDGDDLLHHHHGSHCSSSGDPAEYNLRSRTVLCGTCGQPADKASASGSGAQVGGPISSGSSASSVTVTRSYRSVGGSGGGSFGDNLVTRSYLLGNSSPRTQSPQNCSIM
UniProt P0CJ79: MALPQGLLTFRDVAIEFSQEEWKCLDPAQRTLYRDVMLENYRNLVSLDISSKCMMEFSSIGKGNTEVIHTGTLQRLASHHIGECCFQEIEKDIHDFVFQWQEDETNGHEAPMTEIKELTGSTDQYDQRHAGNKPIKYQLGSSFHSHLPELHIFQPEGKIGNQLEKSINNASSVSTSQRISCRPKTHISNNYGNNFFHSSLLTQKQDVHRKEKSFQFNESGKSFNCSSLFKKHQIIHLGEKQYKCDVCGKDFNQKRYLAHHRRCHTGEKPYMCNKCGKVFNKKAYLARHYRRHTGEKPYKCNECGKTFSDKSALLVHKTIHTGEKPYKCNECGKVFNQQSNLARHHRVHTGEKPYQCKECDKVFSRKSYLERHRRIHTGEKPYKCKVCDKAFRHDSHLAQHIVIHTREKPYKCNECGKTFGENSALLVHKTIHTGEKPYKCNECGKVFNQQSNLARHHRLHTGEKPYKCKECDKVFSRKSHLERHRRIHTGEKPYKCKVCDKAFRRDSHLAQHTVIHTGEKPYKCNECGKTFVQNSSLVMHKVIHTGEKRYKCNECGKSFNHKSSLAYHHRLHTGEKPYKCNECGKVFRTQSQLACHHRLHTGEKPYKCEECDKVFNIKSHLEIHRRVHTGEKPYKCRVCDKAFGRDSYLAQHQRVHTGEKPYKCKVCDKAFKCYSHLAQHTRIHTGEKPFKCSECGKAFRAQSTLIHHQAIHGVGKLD
UniProt P11940, whole entry: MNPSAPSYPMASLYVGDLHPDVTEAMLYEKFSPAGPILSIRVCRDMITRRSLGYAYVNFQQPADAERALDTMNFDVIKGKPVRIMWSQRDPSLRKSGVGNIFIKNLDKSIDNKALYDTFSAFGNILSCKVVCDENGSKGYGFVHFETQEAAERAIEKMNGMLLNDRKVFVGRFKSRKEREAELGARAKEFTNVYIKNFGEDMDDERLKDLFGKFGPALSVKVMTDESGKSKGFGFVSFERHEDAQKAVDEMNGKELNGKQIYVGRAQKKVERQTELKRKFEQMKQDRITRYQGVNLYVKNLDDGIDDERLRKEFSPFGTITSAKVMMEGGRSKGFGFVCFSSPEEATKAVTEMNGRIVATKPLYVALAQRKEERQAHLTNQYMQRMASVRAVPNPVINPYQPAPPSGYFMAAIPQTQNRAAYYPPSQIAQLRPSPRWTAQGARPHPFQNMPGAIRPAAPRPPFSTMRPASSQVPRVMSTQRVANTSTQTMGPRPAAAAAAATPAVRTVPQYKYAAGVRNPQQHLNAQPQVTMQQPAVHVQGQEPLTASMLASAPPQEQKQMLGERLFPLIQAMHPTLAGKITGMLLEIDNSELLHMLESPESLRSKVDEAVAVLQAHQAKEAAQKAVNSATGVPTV
UniProt P12694: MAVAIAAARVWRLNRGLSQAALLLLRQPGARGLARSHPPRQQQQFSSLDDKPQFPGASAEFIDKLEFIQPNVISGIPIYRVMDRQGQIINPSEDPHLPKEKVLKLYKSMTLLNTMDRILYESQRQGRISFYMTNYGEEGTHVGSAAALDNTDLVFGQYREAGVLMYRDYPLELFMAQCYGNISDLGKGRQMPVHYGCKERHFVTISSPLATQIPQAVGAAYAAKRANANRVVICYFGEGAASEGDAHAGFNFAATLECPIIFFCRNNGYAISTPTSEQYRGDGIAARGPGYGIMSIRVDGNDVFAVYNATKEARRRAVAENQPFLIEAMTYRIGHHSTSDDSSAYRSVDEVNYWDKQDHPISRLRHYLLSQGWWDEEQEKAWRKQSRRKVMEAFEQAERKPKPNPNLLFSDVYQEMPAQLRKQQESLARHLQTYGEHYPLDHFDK
UniProt P0CG00: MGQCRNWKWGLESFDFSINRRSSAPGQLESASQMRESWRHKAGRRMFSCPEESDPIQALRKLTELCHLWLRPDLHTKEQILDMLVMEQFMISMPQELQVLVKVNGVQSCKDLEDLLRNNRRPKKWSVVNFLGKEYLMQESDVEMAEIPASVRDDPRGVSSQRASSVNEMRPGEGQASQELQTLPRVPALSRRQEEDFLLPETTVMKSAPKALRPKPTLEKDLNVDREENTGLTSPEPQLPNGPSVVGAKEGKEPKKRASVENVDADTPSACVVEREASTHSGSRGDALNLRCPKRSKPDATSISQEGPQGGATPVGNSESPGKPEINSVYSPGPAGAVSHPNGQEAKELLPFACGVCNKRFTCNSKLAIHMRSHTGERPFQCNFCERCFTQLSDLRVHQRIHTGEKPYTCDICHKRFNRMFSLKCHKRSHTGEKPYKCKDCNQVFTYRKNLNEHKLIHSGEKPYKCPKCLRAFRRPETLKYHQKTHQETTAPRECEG
UniProt P0C221: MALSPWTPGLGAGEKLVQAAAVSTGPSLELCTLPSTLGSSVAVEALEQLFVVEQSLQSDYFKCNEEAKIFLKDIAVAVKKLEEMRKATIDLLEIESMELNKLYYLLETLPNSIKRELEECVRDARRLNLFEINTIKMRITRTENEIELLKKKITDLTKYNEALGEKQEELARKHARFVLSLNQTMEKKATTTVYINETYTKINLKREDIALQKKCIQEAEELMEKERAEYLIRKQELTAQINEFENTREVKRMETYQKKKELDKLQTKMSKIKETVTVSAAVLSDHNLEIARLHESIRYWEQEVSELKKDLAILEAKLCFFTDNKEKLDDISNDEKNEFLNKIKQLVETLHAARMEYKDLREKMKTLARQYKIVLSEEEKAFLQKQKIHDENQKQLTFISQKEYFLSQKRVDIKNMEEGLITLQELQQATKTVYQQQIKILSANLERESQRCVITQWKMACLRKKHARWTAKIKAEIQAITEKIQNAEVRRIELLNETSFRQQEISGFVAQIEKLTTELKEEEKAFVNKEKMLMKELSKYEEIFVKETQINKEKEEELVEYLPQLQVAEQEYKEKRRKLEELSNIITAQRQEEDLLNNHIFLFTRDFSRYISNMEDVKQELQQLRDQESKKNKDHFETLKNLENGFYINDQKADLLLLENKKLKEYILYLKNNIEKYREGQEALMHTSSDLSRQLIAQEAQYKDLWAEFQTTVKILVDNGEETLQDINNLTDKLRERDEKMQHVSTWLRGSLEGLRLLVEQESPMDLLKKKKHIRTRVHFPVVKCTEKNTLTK
UniProt P02724: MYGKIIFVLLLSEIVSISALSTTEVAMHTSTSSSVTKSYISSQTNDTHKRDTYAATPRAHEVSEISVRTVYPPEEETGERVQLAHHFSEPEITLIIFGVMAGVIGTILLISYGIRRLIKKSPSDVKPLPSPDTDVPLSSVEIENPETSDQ
UniProt P0C875: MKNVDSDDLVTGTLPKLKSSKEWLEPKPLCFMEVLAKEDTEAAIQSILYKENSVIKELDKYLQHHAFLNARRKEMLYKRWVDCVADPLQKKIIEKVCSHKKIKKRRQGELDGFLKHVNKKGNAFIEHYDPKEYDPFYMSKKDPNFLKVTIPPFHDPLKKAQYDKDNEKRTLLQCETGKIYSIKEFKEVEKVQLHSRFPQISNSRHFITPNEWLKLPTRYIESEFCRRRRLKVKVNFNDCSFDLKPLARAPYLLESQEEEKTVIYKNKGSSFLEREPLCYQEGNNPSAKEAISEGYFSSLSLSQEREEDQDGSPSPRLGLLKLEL
UniProt P00374: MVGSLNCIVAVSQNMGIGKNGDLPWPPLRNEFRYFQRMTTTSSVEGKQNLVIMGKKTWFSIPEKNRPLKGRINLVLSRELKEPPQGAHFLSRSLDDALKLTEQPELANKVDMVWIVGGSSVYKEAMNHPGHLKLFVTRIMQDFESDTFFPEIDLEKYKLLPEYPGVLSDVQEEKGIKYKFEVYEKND
UniProt P0DME0, whole entry: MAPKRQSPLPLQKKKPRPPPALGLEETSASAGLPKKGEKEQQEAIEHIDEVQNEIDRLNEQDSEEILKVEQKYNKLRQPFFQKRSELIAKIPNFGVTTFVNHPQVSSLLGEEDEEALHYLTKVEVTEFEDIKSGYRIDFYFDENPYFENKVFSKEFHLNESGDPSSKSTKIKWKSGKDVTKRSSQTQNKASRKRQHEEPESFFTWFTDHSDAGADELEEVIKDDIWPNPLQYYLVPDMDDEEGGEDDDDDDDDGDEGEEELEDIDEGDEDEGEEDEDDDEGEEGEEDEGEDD

compound: CN[C@@H]1C[C@H]2O[C@@](C)([C@@H]1OC)n1c3ccccc3c3c4c(c5c6ccccc6n2c5c31)C(=O)NC4 [staurosporine]; test: log2 fold change of tryptic peptide abundance, ligand vs vehicle (limited proteolysis) (log2 ratio); higher = more trypsin-susceptible (destabilized); conditions: ligand concentration: 20 uM; sample: K562 cleared lysate; digestion: 4 min, 22 C (HT-PELSA RT4min, Orbitrap Astral)

Target | log2 fold change
EIF2S1 (peptide sequence: TAWVFDDKYK, peptide start residue: 134) (UniProt P05198) | 0.455
SKI (peptide sequence: RSLHQELEFLR, peptide start residue: 585) (UniProt P12755) | 0.87
DBT (peptide sequence: LSEVVGSGK, peptide start residue: 188) (UniProt P11182) | 0.537
APOB (peptide sequence: LIVAMSSWLQK, peptide start residue: 1230) (UniProt P04114) | 0.267
LMNA (peptide sequence: SVGGSGGGSFGDNLVTR, peptide start residue: 628) (UniProt P02545) | 0.801
UniProt P0CJ79 (peptide sequence: SFQFNESGK, peptide start residue: 213) | -0.164
LTA4H (peptide sequence: WEDAIPLALK, peptide start residue: 548) (UniProt P09960) | -0.113
PC (peptide sequence: VAKENNVDAVHPGYGFLSER, peptide start residue: 105) (UniProt P11498) | -0.238
PABPC1 (peptide sequence: SKGFGFVSFER, peptide start residue: 230) (UniProt P11940) | -0.129
ASNS (peptide sequence: VASVEMVKYHHCR, peptide start residue: 196) (UniProt P08243) | 1.5
BCKDHA (peptide sequence: QMPVHYGCK, peptide start residue: 190) (UniProt P12694) | 0.452
NR2F6 (peptide sequence: AFQEQVDKLGR, peptide start residue: 284) (UniProt P10588) | 0.368
UniProt P0CG00 (peptide sequence: KNLNEHK, peptide start residue: 449) | 0.324
CCDC175 (peptide sequence: KLEEMRK, peptide start residue: 80) (UniProt P0C221) | -0.0207
GYPA (peptide sequence: SYISSQTNDTHKR, peptide start residue: 38) (UniProt P02724) | -0.168
UniProt P09086 (peptide sequence: IKLGFTQGDVGLAMGK, peptide start residue: 300) | 0.0968
UniProt P0C875 (peptide sequence: KEMLYKR, peptide start residue: 73) | -0.391
DHFR (peptide sequence: EAMNHPGHLK, peptide start residue: 124) (UniProt P00374) | 0.501
UniProt P0DME0 (peptide sequence: LRQPFFQK, peptide start residue: 76) | 0.366

Reformatted in CSV form: part of the list above.
Target,log2 fold change
"BCKDHA (peptide sequence: QMPVHYGCK, peptide start residue: 190) (UniProt P12694)",0.452
"NR2F6 (peptide sequence: AFQEQVDKLGR, peptide start residue: 284) (UniProt P10588)",0.368
